No constants are given. Whether binding was seen depends on the method and setting. In cells and extracts the contact can be indirect. Some results given as binding are weak or reduced against the parent protein; the word gives no strength. Each block holds one molecule with its values, some of them ahead of it.
How the values were obtained:
[1] = biological target: T1, Satb1 (Special AT-rich Binding Protein 1) (mouse (endogenous in thymocytes)) (UniProt Q60611); assay: co-IP
T1 sequence: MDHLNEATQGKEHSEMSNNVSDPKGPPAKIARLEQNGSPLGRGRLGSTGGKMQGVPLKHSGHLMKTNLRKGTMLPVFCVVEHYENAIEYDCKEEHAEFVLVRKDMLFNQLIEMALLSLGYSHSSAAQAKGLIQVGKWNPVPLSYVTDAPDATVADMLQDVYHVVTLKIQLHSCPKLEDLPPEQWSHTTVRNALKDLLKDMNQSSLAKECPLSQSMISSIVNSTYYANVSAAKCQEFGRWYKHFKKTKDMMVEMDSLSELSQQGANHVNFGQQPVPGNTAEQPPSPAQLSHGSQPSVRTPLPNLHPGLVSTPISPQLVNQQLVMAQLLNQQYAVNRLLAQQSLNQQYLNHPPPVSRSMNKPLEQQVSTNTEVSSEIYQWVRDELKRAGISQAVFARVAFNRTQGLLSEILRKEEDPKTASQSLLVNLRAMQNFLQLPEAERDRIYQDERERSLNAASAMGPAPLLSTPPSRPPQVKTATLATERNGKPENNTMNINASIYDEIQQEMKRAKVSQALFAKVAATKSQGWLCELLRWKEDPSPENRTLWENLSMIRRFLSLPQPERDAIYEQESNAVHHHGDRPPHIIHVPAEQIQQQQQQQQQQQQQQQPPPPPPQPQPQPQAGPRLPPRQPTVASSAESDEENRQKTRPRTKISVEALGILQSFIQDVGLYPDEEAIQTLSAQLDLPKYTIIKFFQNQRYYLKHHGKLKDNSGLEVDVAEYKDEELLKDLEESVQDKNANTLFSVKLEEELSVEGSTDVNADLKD

The chains behind the UniProt entries cited, without tags or fusion partners.
UniProt Q9CW03: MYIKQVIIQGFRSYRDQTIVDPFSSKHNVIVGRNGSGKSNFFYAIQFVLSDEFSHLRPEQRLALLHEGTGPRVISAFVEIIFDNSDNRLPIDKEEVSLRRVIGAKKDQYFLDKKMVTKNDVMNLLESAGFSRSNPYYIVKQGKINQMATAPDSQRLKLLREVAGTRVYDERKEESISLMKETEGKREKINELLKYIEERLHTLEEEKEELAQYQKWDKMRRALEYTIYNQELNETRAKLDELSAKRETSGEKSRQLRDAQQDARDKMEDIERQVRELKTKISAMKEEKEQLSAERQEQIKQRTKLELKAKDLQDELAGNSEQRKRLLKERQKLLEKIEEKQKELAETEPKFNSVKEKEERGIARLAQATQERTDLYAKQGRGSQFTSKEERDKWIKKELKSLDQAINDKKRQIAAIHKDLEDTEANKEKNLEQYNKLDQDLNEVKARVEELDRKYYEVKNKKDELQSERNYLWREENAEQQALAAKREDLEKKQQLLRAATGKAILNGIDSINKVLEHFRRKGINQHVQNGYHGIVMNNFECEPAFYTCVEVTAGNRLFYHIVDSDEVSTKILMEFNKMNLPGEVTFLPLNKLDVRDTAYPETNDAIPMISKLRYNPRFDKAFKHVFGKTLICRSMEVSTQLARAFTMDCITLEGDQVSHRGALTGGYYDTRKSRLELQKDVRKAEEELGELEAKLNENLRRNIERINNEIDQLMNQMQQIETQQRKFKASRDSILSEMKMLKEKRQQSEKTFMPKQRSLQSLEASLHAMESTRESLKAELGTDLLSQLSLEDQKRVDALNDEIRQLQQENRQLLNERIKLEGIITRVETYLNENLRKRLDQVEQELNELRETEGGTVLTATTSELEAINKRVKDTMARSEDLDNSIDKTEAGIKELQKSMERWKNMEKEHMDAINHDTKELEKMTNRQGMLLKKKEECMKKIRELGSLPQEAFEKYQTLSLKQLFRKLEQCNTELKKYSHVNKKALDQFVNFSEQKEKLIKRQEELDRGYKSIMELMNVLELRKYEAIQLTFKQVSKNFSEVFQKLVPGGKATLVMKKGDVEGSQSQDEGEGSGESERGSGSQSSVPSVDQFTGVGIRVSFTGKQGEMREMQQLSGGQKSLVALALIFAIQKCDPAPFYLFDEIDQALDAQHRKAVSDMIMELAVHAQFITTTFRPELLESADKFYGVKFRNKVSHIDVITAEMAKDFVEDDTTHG

[2] = biological target: T1, Satb1 (Special AT-rich Binding Protein 1) (mouse (endogenous in thymocytes)); assay: proximity ligation
[3] = biological target: T2, Satb1 (Special AT-rich Binding Protein 1) (mouse (endogenous in thymocytes)), Q60611; assay: co-IP; settings: remark: other sources report otherwise
T2 chain: T1 sequence

[4] = biological target: T3, Smc1a (cohesin subunit) (mouse (endogenous in thymocytes)) (UniProt Q9CU62); assay: co-IP
T3 sequence: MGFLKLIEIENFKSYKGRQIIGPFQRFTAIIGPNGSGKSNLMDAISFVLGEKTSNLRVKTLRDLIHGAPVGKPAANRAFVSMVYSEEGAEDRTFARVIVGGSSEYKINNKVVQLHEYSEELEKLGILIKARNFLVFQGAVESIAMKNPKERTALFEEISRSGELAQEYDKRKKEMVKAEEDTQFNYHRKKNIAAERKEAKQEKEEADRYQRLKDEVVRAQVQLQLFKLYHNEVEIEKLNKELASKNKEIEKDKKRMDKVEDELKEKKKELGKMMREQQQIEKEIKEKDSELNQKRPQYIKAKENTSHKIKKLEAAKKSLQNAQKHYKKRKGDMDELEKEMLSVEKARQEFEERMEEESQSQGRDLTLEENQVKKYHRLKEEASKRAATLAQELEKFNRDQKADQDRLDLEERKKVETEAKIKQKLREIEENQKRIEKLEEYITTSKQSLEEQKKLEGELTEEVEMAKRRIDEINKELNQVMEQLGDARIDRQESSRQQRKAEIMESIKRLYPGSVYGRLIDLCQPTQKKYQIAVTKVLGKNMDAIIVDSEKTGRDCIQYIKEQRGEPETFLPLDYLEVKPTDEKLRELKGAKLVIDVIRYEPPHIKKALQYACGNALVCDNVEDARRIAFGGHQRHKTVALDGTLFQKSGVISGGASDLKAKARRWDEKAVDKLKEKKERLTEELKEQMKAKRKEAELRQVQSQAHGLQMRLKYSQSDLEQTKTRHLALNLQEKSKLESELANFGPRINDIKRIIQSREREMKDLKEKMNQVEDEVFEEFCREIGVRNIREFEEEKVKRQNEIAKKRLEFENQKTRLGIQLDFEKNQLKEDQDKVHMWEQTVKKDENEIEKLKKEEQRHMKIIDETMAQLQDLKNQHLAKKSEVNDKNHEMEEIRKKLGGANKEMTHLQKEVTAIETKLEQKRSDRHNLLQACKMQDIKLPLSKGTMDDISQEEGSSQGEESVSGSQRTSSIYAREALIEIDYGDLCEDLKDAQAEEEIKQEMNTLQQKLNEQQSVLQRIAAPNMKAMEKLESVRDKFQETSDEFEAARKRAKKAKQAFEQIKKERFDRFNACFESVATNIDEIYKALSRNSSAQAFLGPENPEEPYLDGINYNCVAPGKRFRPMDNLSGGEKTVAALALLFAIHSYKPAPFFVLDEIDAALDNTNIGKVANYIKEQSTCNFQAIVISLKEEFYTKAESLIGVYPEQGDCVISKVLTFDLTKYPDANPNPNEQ

B2: Ctcf (CCCTC-binding factor), Q61164 1-736 (protein)
chain: MEGEAVEAIVEESETFIKGKERKTYQRRREGGQEEDACHLPQNQTDGGEVVQDVNSSVQMVMMEQLDPTLLQMKTEVMEGTVAPEAEAAVDDTQIITLQVVNMEEQPINIGELQLVQVPVPVTVPVATTSVEELQGAYENEVSKEGLAESEPMICHTLPLPEGFQVVKVGANGEVETLEQGELPPQEDSSWQKDPDYQPPAKKTKKTKKSKLRYTEEGKDVDVSVYDFEEEQQEGLLSEVNAEKVVGNMKPPKPTKIKKKGVKKTFQCELCSYTCPRRSNLDRHMKSHTDERPHKCHLCGRAFRTVTLLRNHLNTHTGTRPHKCPDCDMAFVTSGELVRHRRYKHTHEKPFKCSMCDYASVEVSKLKRHIRSHTGERPFQCSLCSYASRDTYKLKRHMRTHSGEKPYECYICHARFTQSGTMKMHILQKHTENVAKFHCPHCDTVIARKSDLGVHLRKQHSYIEQGKKCRYCDAVFHERYALIQHQKSHKNEKRFKCDQCDYACRQERHMIMHKRTHTGEKPYACSHCDKTFRQKQLLDMHFKRYHDPNFVPAAFVCSKCGKTFTRRNTMARHADNCAGPDGVEGENGGETKKSKRGRKRKMRSKKEDSSDSEENAEPDLDDNEEEEEPAVEIEPEPEPQPQPPPPPQPVAPAPPPAKKRRGRPPGRTNQPKQNQPTAIIQVEDQNTGAIENIIVEVKKEPDAEPAEGEEEEAQAATTDAPNGDLTPEMILSMMDR
binding [3]: no binding

B3: Satb1 (Special AT-rich Binding Protein 1) (protein, UniProt Q60611 1-764)
chain: T1 sequence
binding [4]: binds

Second part, the molecule after the results:

binding [1]: binds
Molecule: Smc3 (core subunit of the cohesin complex) (from UniProt Q9CW03 1-1217)

binding [2]: binds
binding [1]: binds
B1: Smc1a (cohesin subunit) (protein, UniProt Q9CU62 1-1233)
chain: T3 sequence

Source: article doi:10.1101/2025.06.19.657327
